The target in the assay is myosin phosphatase target subunit-1 (MYPT1), endogenous in BPAEC (bovine (endogenous in BPAEC)). As to the kind of experiment: proximity ligation; Duolink PLA in fixed, permeabilised BPAECs; mouse anti-eNOS and rabbit anti-MYPT1 1-296; control with secondary antibodies only.

Results are given in words; binding and its absence hold for the method and conditions named. In cells and extracts the contact can be indirect. Binding can be weak; no strength is given.

B1: endothelial nitric oxide synthase (eNOS), endogenous in BPAEC (protein, UniProt P29473 1-1205)
chain: MGNLKSVGQEPGPPCGLGLGLGLGLCGKQGPASPAPEPSRAPAPATPHAPDHSPAPNSPTLTRPPEGPKFPRVKNWELGSITYDTLCAQSQQDGPCTPRCCLGSLVLPRKLQTRPSPGPPPAEQLLSQARDFINQYYSSIKRSGSQAHEERLQEVEAEVASTGTYHLRESELVFGAKQAWRNAPRCVGRIQWGKLQVFDARDCSSAQEMFTYICNHIKYATNRGNLRSAITVFPQRAPGRGDFRIWNSQLVRYAGYRQQDGSVRGDPANVEITELCIQHGWTPGNGRFDVLPLLLQAPDEAPELFVLPPELVLEVPLEHPTLEWFAALGLRWYALPAVSNMLLEIGGLEFSAAPFSGWYMSTEIGTRNLCDPHRYNILEDVAVCMDLDTRTTSSLWKDKAAVEINLAVLHSFQLAKVTIVDHHAATVSFMKHLDNEQKARGGCPADWAWIVPPISGSLTPVFHQEMVNYILSPAFRYQPDPWKGSATKGAGITRKKTFKEVANAVKISASLMGTLMAKRVKATILYASETGRAQSYAQQLGRLFRKAFDPRVLCMDEYDVVSLEHEALVLVVTSTFGNGDPPENGESFAAALMEMSGPYNSSPRPEQHKSYKIRFNSVSCSDPLVSSWRRKRKESSNTDSAGALGTLRFCVFGLGSRAYPHFCAFARAVDTRLEELGGERLLQLGQGDELCGQEEAFRGWAKAAFQASCETFCVGEEAKAAAQDIFSPKRSWKRQRYRLSTQAEGLQLLPGLIHVHRRKMFQATVLSVENLQSSKSTRATILVRLDTAGQEGLQYQPGDHIGICPPNRPGLVEALLSRVEDPPPPTESVAVEQLEKGSPGGPPPSWVRDPRLPPCTLRQALTFFLDITSPPSPRLLRLLSTLAEEPSEQQELETLSQDPRRYEEWKWFRCPTLLEVLEQFPSVALPAPLLLTQLPLLQPRYYSVSSAPNAHPGEVHLTVAVLAYRTQDGLGPLHYGVCSTWLSQLKTGDPVPCFIRGAPSFRLPPDPYVPCILVGPGTGIAPFRGFWQERLHDIESKGLQPAPMTLVFGCRCSQLDHLYRDEVQDAQERGVFGRVLTAFSREPDSPKTYVQDILRTELAAEVHRVLCLERGHMFVCGDVTMATSVLQTVQRILATEGDMELDEAGDVIGVLRDQQRYHEDIFGLTLRTQEVTSRIRTQSFSLQERHLRGAVPWAFDPPGPDTPGP
Turning to B1, the binding entry is recorded as “binds”.

Source of the values: article PMC5353758.
